Measurements reported in PubChem BioAssay AID1259405 (NCATS, 2018).
Here is one part, drawn at random, of about 50,000 reagents tested. About 4,000 of them (8%) were called active. 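Mouse siRNA library applied to hamster cells; one well for each siRNA.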 Reagents against one gene are numbered here.

Aim: 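Mouse-designed siRNAs used to find CHO productivity engineering targets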 (primary screen)
Cells: Chinese hamster CHO-K1 ovary cells with stable secreted eGFP expression
Reagents: single siRNA against mouse genes, 0.8 pmol siRNA per well (2 µl of 400 nM stock)
Duration: 3 days
Measurement: 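Per-well intracellular GFP measured by laser scanning cytometry, plus viability from ATP luminescence, each relative to plate median of non-targeting control wells, in %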
Direction: GFP, % of control: higher = more GFP per well, higher productivity; viability (ATP), % of control: higher = more viable cells (more ATP)
Call rule: 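a knock-down is called active if GFP reaches 120% or more of non-targeting control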

no.	target gene	reagent	GFP, % of control	viability (ATP), % of control	activity call
1	Gucy2e (guanylate cyclase 2e)	1	97.4	104	inactive
2	Gucy2e (guanylate cyclase 2e)	2	121	97.3	active
3	Gucy2e (guanylate cyclase 2e)	3	49.1	35.8	inactive
4	Osbpl11 (oxysterol binding protein-like 11)	1	36.8	50.8	inactive
5	Osbpl11 (oxysterol binding protein-like 11)	2	50.7	50.7	inactive
6	Osbpl11 (oxysterol binding protein-like 11)	3	96.1	107	inactive
7	Tesk2 (testis-specific kinase 2)	1	132	106	active
8	Tesk2 (testis-specific kinase 2)	2	85.6	74.6	inactive
9	Tesk2 (testis-specific kinase 2)	3	87.7	57.9	inactive
10	Vwa3b (von Willebrand factor A domain containing 3B)	1	165	103	active
11	Vwa3b (von Willebrand factor A domain containing 3B)	2	81.6	84.4	inactive
12	Vwa3b (von Willebrand factor A domain containing 3B)	3	62.3	34.9	inactive
13	Vwa3b (von Willebrand factor A domain containing 3B)	4	89.5	114	inactive
14	Vwa3b (von Willebrand factor A domain containing 3B)	5	82.3	69	inactive
15	Vwa3b (von Willebrand factor A domain containing 3B)	6	66.9	84.4	inactive
16	Tlcd1 (TLC domain containing 1)	1	85.9	87.1	inactive
17	Tlcd1 (TLC domain containing 1)	2	77.7	73.3	inactive
18	Tlcd1 (TLC domain containing 1)	3	85.2	91.6	inactive
19	Sirpb1a (signal-regulatory protein beta 1A)	1	118	74.9	inactive
20	Sirpb1a (signal-regulatory protein beta 1A)	2	71.1	68.6	inactive
21	Sirpb1a (signal-regulatory protein beta 1A)	3	76	63.2	inactive
22	Cnst (consortin, connexin sorting protein)	1	85.1	73.7	inactive
23	Cnst (consortin, connexin sorting protein)	2	83	74.5	inactive
24	Cnst (consortin, connexin sorting protein)	3	77.6	72.8	inactive
25	Il4ra (interleukin 4 receptor, alpha)	1	99.3	88	inactive
26	Il4ra (interleukin 4 receptor, alpha)	2	35.1	21.1	inactive
27	Il4ra (interleukin 4 receptor, alpha)	3	113	75.1	inactive
28	Mboat2 (membrane bound O-acyltransferase domain containing 2)	1	161	122	active
29	Mboat2 (membrane bound O-acyltransferase domain containing 2)	2	57.4	72.9	inactive
30	Mboat2 (membrane bound O-acyltransferase domain containing 2)	3	67.8	67.8	inactive
31	Asb3 (ankyrin repeat and SOCS box-containing 3)	1	68	68.9	inactive
32	Asb3 (ankyrin repeat and SOCS box-containing 3)	2	74.4	69.5	inactive
33	Asb3 (ankyrin repeat and SOCS box-containing 3)	3	106	93	inactive
34	Elf1 (E74 like ETS transcription factor 1)	1	59.2	74.6	inactive
35	Elf1 (E74 like ETS transcription factor 1)	2	113	93	inactive
36	Pole3 (polymerase (DNA directed), epsilon 3 (p17 subunit))	1	72.9	85.7	inactive
37	Pole3 (polymerase (DNA directed), epsilon 3 (p17 subunit))	2	45.2	30	inactive
38	Pole3 (polymerase (DNA directed), epsilon 3 (p17 subunit))	3	104	77.7	inactive
39	Piwil1 (piwi-like RNA-mediated gene silencing 1)	1	83.1	72.1	inactive
40	Piwil1 (piwi-like RNA-mediated gene silencing 1)	2	101	94	inactive
41	Piwil1 (piwi-like RNA-mediated gene silencing 1)	3	86.3	81.6	inactive
42	Dnaaf1 (dynein, axonemal assembly factor 1)	1	91.1	79.1	inactive
43	Dnaaf1 (dynein, axonemal assembly factor 1)	2	45.8	46.6	inactive
44	Dnaaf1 (dynein, axonemal assembly factor 1)	3	81.7	128	inactive
45	Tmem203 (transmembrane protein 203)	1	63.8	82.8	inactive
46	Tmem203 (transmembrane protein 203)	2	41.6	20.1	inactive
47	Tmem203 (transmembrane protein 203)	3	91.6	94.7	inactive
48	Ano6 (anoctamin 6)	1	63.7	98.6	inactive
49	Ano6 (anoctamin 6)	2	46.5	102	inactive
50	Ano6 (anoctamin 6)	3	78.8	99	inactive
51	Crhr1 (corticotropin releasing hormone receptor 1)	1	61.2	59.6	inactive
52	Crhr1 (corticotropin releasing hormone receptor 1)	2	51.2	63.6	inactive
53	Crhr1 (corticotropin releasing hormone receptor 1)	3	49.5	59.4	inactive
54	Lrrc46 (leucine rich repeat containing 46)	1	137	107	active
55	Lrrc46 (leucine rich repeat containing 46)	2	132	56.4	active
56	Lrrc46 (leucine rich repeat containing 46)	3	112	73.1	inactive
57	Tepsin (TEPSIN, adaptor related protein complex 4 accessory protein)	1	107	65.4	inactive
58	Tepsin (TEPSIN, adaptor related protein complex 4 accessory protein)	2	59.3	94.8	inactive
59	Tepsin (TEPSIN, adaptor related protein complex 4 accessory protein)	3	142	95.6	active
60	Galnt12 (polypeptide N-acetylgalactosaminyltransferase 12)	1	101	80.1	inactive
61	Galnt12 (polypeptide N-acetylgalactosaminyltransferase 12)	2	68	127	inactive
62	Galnt12 (polypeptide N-acetylgalactosaminyltransferase 12)	3	79.7	129	inactive
63	Syt14 (synaptotagmin XIV)	1	93.1	108	inactive
64	Syt14 (synaptotagmin XIV)	2	69.2	85.8	inactive
65	Prlr (prolactin receptor)	1	107	114	inactive
66	Prlr (prolactin receptor)	2	40.3	73.5	inactive
67	Prlr (prolactin receptor)	3	72	68.9	inactive
68	Map3k5 (mitogen-activated protein kinase kinase kinase 5)	1	70.7	73.8	inactive
69	Pdx1 (pancreatic and duodenal homeobox 1)	1	70.8	76.8	inactive
70	Pdx1 (pancreatic and duodenal homeobox 1)	2	81.4	56.4	inactive
71	Pdx1 (pancreatic and duodenal homeobox 1)	3	82.8	108	inactive
72	Tcaim (T cell activation inhibitor, mitochondrial)	1	56.8	82.7	inactive
73	Tcaim (T cell activation inhibitor, mitochondrial)	2	93.9	103	inactive
74	Tcaim (T cell activation inhibitor, mitochondrial)	3	98.5	98.9	inactive
75	Or5aq6 (olfactory receptor family 5 subfamily AQ member 6)	1	129	57.1	active
76	Or5aq6 (olfactory receptor family 5 subfamily AQ member 6)	2	89.7	89.4	inactive
77	Or5aq6 (olfactory receptor family 5 subfamily AQ member 6)	3	76.2	54.7	inactive
78	Rab2a (RAB2A, member RAS oncogene family)	1	154	104	active
79	Rab2a (RAB2A, member RAS oncogene family)	2	108	120	inactive
80	Rab2a (RAB2A, member RAS oncogene family)	3	49.2	76.6	inactive
81	Cyp51 (cytochrome P450, family 51)	1	85	97.7	inactive
82	Cyp51 (cytochrome P450, family 51)	2	122	104	active
83	Cyp51 (cytochrome P450, family 51)	3	42.8	34.7	inactive
84	Ttc21a (tetratricopeptide repeat domain 21A)	1	87.9	99.4	inactive
85	Ttc21a (tetratricopeptide repeat domain 21A)	2	76	81.4	inactive
86	Ttc21a (tetratricopeptide repeat domain 21A)	3	98.5	101	inactive

12 consecutive entries already listed:
no.	target gene	reagent	GFP, % of control	viability (ATP), % of control	activity call
60	Galnt12 (polypeptide N-acetylgalactosaminyltransferase 12)	1	101	80.1	inactive
61	Galnt12 (polypeptide N-acetylgalactosaminyltransferase 12)	2	68	127	inactive
62	Galnt12 (polypeptide N-acetylgalactosaminyltransferase 12)	3	79.7	129	inactive
63	Syt14 (synaptotagmin XIV)	1	93.1	108	inactive
64	Syt14 (synaptotagmin XIV)	2	69.2	85.8	inactive
65	Prlr (prolactin receptor)	1	107	114	inactive
66	Prlr (prolactin receptor)	2	40.3	73.5	inactive
67	Prlr (prolactin receptor)	3	72	68.9	inactive
68	Map3k5 (mitogen-activated protein kinase kinase kinase 5)	1	70.7	73.8	inactive
69	Pdx1 (pancreatic and duodenal homeobox 1)	1	70.8	76.8	inactive
70	Pdx1 (pancreatic and duodenal homeobox 1)	2	81.4	56.4	inactive
71	Pdx1 (pancreatic and duodenal homeobox 1)	3	82.8	108	inactive
